Experimental data from patent US20230047208A1, “RNA Splicing Modulation” (The General Hospital Corporation, priority 2020, published 2023).
This continues a long series; more values of the same kind are listed elsewhere.

System: wildtype (WT) human fibroblast cell lines
Assay: Transcriptome-wide splicing by RNA sequencing (RNASeq), exon triplet PSI change;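 for Effect: six WT fibroblast lines treated seven days versus DMSO vehicle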;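 for T-PSI: T-PSI is average treated PSI after seven days of treatment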
Assay type: cell-based
Parameters: key to Effect: Exclusion; Inclusion; Unchanged
Excerpt: FIG. 2A provides a representation of an exon triplet. Exon U is upstream of Exon X, which is upstream of Exon D. R1, R2 and R3 represent RNA sequencing (RNASeq) reads spanning the regions between two adjacent exons. UI1, I1X, XI2 and I2D are four regions flanking the four splice sites of the exon-triplet. Each flanking region consists of 25 exonic base pairs and 75 intronic base pairs.
FIG. 2B provides a volcano plot showing the ψ (PSI: Percent Spliced-In) changes in splicing after treatment with Compound (I). Each dot represents one of the 161,097 expressed exon triplets in human fibroblasts. The x axis represents the ψ changes after treatment and the y axis represents the False Discovery Rate (FDR) (log 10 transformed). […] The horizontal dashed line indicates an FDR of 0.1. The dots on the right side of the right vertical dashed line and above the horizontal dashed line represent the exon-triplets with an increase for Exon X inclusion (Δψ≥0.1 and FDR<0.1) while the dots on left side of the left vertical dashed line and above the horizontal dashed line represent an increase for Exon X exclusion (Δψ≤−0.1 and FDR<0.1). Black dots in-between the two vertical dashed lines represent exon-triplets unchanged from the treatment.
In some aspects, analysis is performed on data derived from the assay to measure the magnitude of splicing to determine the amount of exons spliced into an mRNA transcript that is produced in the presence of Compound (I) relative to the amount in the absence of Compound (I) or presence of a negative control. In a preferred aspect, the method utilized is calculation of change in Percent Spliced In (ΔPSI). […] The ΔPSI value is derived from the formula: […]
The values for “a” and “b” represent the number of reads supporting the probability for potential inclusion or exclusion of an exon in an RNA transcript. The “a” value is derived from the number of reads within an exon triplet covering, in 5′ to 3′ order: the last few bases (>1 nucleotide) of an upstream exon operably linked to the first few bases (>1 nucleotide) of a middle exon. The “b” value is derived from the number of reads within an exon triplet covering, in 5′ to 3′ order: the last few bases (>1 nucleotide) of the middle exon operably linked to the first few bases (>1 nucleotide) of a downstream exon. The number of reads will indicate whether the splice junction of a middle exon has been identified as potentially having a CNN Motif(s) by the CNN Model described herein, wherein the inclusion or exclusion of the middle exon may be modulated in the presence of Compound (I) to produce one or more mature RNA isoforms from the gene transcript. The value for “c” represents the number of reads supporting the exclusion of the middle exon.
The effect on splicing modulation and corresponding splice differences toward exon inclusion or exclusion was determined by counting the RNASeq reads covering two splice junctions of exon triplets (three consecutive exons: Exon U, Exon X, Exon D) and the corresponding intervening introns, then comparing the change in Percent Spliced In (ΔPSI or Δψ) of the middle exon (Exon X) after treatment (as shown in FIG. 2A)^52,53. 934 exon triplets were identified showing differential middle exon inclusion or exclusion in response to Compound (I) treatment. Of these, 254 were exon inclusion events (Δψ≥0.1 and FDR<0.1) and 680 were exon exclusion events (Δψ≤−0.1 and FDR<0.1) (as shown in FIG. 2B). […] The splicing results were evaluated by RT-PCR in independent replicate experiments, confirming all the calculated Δψ values. […]

[1] = SPTAN1 Exon 131355262-131355321, seven days
[2] = SRSF2 Exon 74731854-74731957, seven days
[3] = ST6GALNAC6 Exon 130660235-130660289, seven days
[4] = ST7 Exon 116859138-116859230, seven days
[5] = ST7 Exon 116861977-116862116, seven days
[6] = STAG1 Exon 136287607-136287703, seven days
[7] = STAG2 Exon 123155217-123155281, seven days
[8] = STARD3 Exon 37814962-37815073, seven days
[9] = STARD3NL Exon 38218692-38218747, seven days
[10] = STARD4 Exon 110837660-110837786, seven days
[11] = STARD5 Exon 81615240-81615289, seven days
[12] = STAT6 Exon 57501442-57501526, seven days
[13] = STK16 Exon 220111835-220111968, seven days
[14] = STK19 Exon 31947191-31947330, seven days
[15] = STK38L Exon 27461272-27461394, seven days
[16] = STK40 Exon 36833449-36833685, seven days
[17] = STK40 Exon 36833453-36833685, seven days
[18] = STOML1 Exon 74281371-74281598, seven days
[19] = STOML1 Exon 74281449-74281598, seven days
[20] = STRA13 Exon 79977386-79977570, seven days
[21] = STRA13 Exon 79977517-79977570, seven days
[22] = STRADA Exon 61784607-61784778, seven days
[23] = STRN3 Exon 31388172-31388312, seven days
[24] = STX3 Exon 59564756-59564869, seven days
[25] = STX16-NPEPL1 Exon 57244347-57244509, seven days
[26] = STX16 Exon 57244347-57244509, seven days
[27] = STX16 Exon 57244358-57244509, seven days
[28] = STXBP3 Exon 109321908-109322032, seven days
[29] = STXBP5 Exon 147660473-147660520, seven days
[30] = STYXL1 Exon 75643060-75643205, seven days
[31] = SUCO Exon 172522400-172522510, seven days
[32] = SUGP2 Exon 19104447-19104549, seven days
[33] = SUGP2 Exon 19104457-19104549, seven days
[34] = SUGT1 Exon 53235610-53235705, seven days
[35] = SULF1 Exon 70408000-70408161, seven days
[36] = SULF1 Exon 70550737-70550879, seven days
[37] = SUN2 Exon 39150647-39150711, seven days
[38] = SUOX Exon 56391399-56391507, seven days

Clc1nc(NCc2ccncc2)c2cc[nH]c2n1 [Compound (I), 2-chloro-N-(pyridin-4-ylmethyl)-7H-pyrrolo[2,3-d]pyrimidin-4-amine]
ΔPSI (SPPL2A Exon 51018270-51018323, seven days): 0.378 | Effect [1]: Exc | T-PSI [1]: 0.040 | ΔPSI [1]: −0.249 | Effect [2]: Unc | T-PSI [2]: 0.113 | ΔPSI [2]: 0.001 | Effect [3]: Inc | T-PSI [3]: 0.659 | ΔPSI [3]: 0.130 | Effect [4]: Exc | T-PSI [4]: 0.857 | ΔPSI [4]: −0.137 | Effect [5]: Exc | T-PSI [5]: 0.771 | ΔPSI [5]: −0.218 | Effect [6]: Unc | T-PSI [6]: 0.885 | ΔPSI [6]: 0.007 | Effect [7]: Unc | T-PSI [7]: 0.279 | ΔPSI [7]: 0.002 | Effect [8]: Unc | T-PSI [8]: 0.871 | ΔPSI [8]: 0.009 | Effect [9]: Inc | T-PSI [9]: 0.195 | ΔPSI [9]: 0.108 | Effect [10]: Unc | T-PSI [10]: 0.760 | ΔPSI [10]: −0.008 | Effect [11]: Exc | T-PSI [11]: 0.780 | ΔPSI [11]: −0.169 | Effect [12]: Exc | T-PSI [12]: 0.732 | ΔPSI [12]: −0.124 | Effect [13]: Exc | T-PSI [13]: 0.703 | ΔPSI [13]: −0.216 | Effect [14]: Exc | T-PSI [14]: 0.773 | ΔPSI [14]: −0.171 | Effect [15]: Unc | T-PSI [15]: 0.898 | ΔPSI [15]: −0.008 | Effect [16]: Inc | T-PSI [16]: 0.358 | ΔPSI [16]: 0.221 | Effect [17]: Inc | T-PSI [17]: 0.551 | ΔPSI [17]: 0.309 | Effect [18]: Unc | T-PSI [18]: 0.818 | ΔPSI [18]: 0.001 | Effect [19]: Unc | T-PSI [19]: 0.898 | ΔPSI [19]: −0.004 | Effect [20]: Exc | T-PSI [20]: 0.142 | ΔPSI [20]: −0.226 | Effect [21]: Exc | T-PSI [21]: 0.249 | ΔPSI [21]: −0.261 | Effect [22]: Exc | T-PSI [22]: 0.833 | ΔPSI [22]: −0.129 | Effect [23]: Inc | T-PSI [23]: 0.187 | ΔPSI [23]: 0.110 | Effect [24]: Exc | T-PSI [24]: 0.629 | ΔPSI [24]: −0.239 | Effect [25]: Exc | T-PSI [25]: 0.495 | ΔPSI [25]: −0.327 | Effect [26]: Exc | T-PSI [26]: 0.495 | ΔPSI [26]: −0.327 | Effect [27]: Exc | T-PSI [27]: 0.335 | ΔPSI [27]: −0.380 | Effect [28]: Exc | T-PSI [28]: 0.862 | ΔPSI [28]: −0.128 | Effect [29]: Unc | T-PSI [29]: 0.827 | ΔPSI [29]: −0.002 | Effect [30]: Exc | T-PSI [30]: 0.572 | ΔPSI [30]: −0.177 | Effect [31]: Inc | T-PSI [31]: 0.967 | ΔPSI [31]: 0.362 | Effect [32]: Inc | T-PSI [32]: 0.908 | ΔPSI [32]: 0.106 | Effect [33]: Inc | T-PSI [33]: 0.902 | ΔPSI [33]: 0.111 | Effect [34]: Exc | T-PSI [34]: 0.285 | ΔPSI [34]: −0.126 | Effect [35]: Exc | T-PSI [35]: 0.446 | ΔPSI [35]: −0.206 | Effect [36]: Exc | T-PSI [36]: 0.702 | ΔPSI [36]: −0.209 | Effect [37]: Exc | T-PSI [37]: 0.221 | ΔPSI [37]: −0.132 | Effect [38]: Unc | T-PSI [38]: 0.626 | ΔPSI [38]: −0.005 | Effect (effect on middle exon of the exon triplet named in c0-c3 (gene, Intron1, Exon, Intron2), six WT human fibroblast cell lines treated with Compound (I) for seven days, RNASeq): Exc and Inc and Unc
